Measurements as given in patent US4440770A, “Diuretic, hypotensive and antiedemic quinoline oximes” (Mochida Seiyaku Kabushiki Kaisha, priority 1980, dated 1984).
Several values for one entry are separate records, joined by “and”; a condition that tells them apart may be missing. Identical values can stand only once. At least one read-out could not be matched to a standard name with certainty.

System: rats
Experiment: Diuretic effect in rats
Format: in vivo, Wister strain male rats
Details: oral, urine volume up to 5 hours, % of control
Method: Wister strain male rats weighing about 200 g were starved overnight and each compound of this invention suspended in 25 ml/kg of physiological saline were administered orally to the 5 animals in each group, and the diuretic effect up to 5 hours after the administration was measured. The diuretic effect is expressed as the average urine volume (%) of the treated group divided by that of the control group.

Question: With `NS(=O)(=O)c1cc(C(=O)O)c(NCc2ccco2)cc1Cl` [Furosemide, reference compound] as the compound, how does the “Diuretic Effect” value (dosage 5 mg/kg) read?
Answer: The value was 116%.

Question: What about the “Diuretic Effect” value (dosage 10 mg/kg) of the same compound?
Answer: Its value is 167% and 215%.

Question: And the “Diuretic Effect” value (dosage 20 mg/kg)?
Answer: The value was 304% and 277%.
